# According to PMC7862700:
# Only a part is listed here, and it is no random draw. At the low end of the ranking the order means little.
# Molecular target: T1, FLI1 (UniProt Q01543)
# T1 sequence: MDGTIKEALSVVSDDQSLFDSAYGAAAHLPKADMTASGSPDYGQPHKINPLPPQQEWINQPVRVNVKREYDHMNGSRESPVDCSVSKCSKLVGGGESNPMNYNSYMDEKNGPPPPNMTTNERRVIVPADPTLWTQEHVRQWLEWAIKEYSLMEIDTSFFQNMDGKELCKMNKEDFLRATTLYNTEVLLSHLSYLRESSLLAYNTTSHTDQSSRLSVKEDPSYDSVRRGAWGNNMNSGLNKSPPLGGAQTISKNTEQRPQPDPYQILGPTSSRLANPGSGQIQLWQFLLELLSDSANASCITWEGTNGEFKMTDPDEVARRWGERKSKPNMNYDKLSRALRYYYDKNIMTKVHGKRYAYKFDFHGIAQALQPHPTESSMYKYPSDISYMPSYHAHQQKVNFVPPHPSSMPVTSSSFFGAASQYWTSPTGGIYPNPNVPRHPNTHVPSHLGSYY
# Experiment: DAPPL (digital affinity profiling via proximity ligation, sequencing)
# Details: 10 mM Tris-HCl pH 7.5, 50 mM NaCl, 1 mM DTT, 4% glycerol, room temperature, 30 min; GST-TFs on glutathione beads, 16-mer random dsDNA library, 0.1% …; high values mean tight binding; double strand, one strand shown; scale: fold enrichment (6-mer frequency, TF over GST control)
row,Sequence,binding signal
1,CATGGT,1.25
2,TCTCTT,1.52
3,ACGAAT,1.12
4,ACACAA,1.14
5,CACCTT,1.36
6,GTACGA,1
7,AACATT,1.37
8,TTAAAT,1.17
9,TTGAGC,1.22
10,ATTACC,1.22
11,TATGCT,1.28
12,ACCGCA,1.17
13,TACTCC,1.3
14,TTCTAT,1.4
15,ACACCT,1.1
16,TCCGTA,1.57
17,AAACTA,1.17
18,ACGCTT,1.4
19,GGGTTT,1.17
20,TTTCCG,3.86

# Quoted at random: 2 records from the list, in no set order.
row,Sequence,binding signal
3,ACGAAT,1.12
16,TCCGTA,1.57

# (next part)

row,Sequence,binding signal
1,ATTGGT,1.31
2,CTCGCT,1.81
3,CCCTTC,1.55
4,ATTTTC,1.47
5,TGGGTT,1.17
6,ATAAGC,1.02
7,AGATGC,1.13
8,GCGACC,1.09
9,CACGTT,1.28
10,AATGAA,1.11
11,TCGATA,1.17
12,CTTTAC,1.24
13,CCACTA,1.1
14,TCATCA,1.18
15,CGTTTT,1.16
16,CAGGAA,1.63
17,CATTCG,1.25
18,CCCTTG,1.14
19,TAAACC,1.27
20,AAGCAA,1.03
